Assay results published in the supplement of paper PMC10849652.
The other results are listed elsewhere or left out.

Sequences of proteins named here, by UniProt entry; tags and fusion partners are left off. A change or cut given only in a name is not applied to a line headed by its entry.
UniProt O00418: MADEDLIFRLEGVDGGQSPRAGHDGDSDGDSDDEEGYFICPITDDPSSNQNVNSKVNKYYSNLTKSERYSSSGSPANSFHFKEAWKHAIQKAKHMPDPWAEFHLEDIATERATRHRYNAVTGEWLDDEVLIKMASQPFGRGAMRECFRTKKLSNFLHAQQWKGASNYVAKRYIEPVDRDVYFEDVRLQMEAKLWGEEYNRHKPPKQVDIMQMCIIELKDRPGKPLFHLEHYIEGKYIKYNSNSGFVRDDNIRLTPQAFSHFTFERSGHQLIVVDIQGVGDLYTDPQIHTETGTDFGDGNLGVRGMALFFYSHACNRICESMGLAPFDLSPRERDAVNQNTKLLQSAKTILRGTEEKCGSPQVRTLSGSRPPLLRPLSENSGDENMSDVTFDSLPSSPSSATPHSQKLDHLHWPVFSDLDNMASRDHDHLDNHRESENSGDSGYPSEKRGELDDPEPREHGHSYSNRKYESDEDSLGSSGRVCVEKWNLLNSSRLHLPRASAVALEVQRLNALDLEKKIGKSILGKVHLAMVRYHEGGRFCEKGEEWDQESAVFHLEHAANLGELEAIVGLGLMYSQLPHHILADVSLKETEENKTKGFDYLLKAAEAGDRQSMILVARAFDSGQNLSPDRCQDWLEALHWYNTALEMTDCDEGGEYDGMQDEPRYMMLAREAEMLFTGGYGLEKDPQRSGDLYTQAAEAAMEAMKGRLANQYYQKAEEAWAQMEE
UniProt Q8N8S7: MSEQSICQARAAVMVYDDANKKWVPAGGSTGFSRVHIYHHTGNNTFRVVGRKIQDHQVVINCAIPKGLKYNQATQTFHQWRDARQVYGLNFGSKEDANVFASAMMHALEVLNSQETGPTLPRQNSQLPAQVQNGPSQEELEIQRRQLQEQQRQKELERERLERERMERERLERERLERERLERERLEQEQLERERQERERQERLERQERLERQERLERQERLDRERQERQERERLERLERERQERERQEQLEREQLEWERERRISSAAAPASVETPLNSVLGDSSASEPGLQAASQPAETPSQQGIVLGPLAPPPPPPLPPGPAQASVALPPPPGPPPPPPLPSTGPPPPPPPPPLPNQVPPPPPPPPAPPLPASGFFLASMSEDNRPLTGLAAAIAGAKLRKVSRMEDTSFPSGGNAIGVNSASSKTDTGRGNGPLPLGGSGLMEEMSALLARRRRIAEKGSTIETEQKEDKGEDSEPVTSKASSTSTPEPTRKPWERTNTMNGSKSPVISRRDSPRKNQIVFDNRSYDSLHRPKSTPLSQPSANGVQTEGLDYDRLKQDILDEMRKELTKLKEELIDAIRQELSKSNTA
UniProt Q14241: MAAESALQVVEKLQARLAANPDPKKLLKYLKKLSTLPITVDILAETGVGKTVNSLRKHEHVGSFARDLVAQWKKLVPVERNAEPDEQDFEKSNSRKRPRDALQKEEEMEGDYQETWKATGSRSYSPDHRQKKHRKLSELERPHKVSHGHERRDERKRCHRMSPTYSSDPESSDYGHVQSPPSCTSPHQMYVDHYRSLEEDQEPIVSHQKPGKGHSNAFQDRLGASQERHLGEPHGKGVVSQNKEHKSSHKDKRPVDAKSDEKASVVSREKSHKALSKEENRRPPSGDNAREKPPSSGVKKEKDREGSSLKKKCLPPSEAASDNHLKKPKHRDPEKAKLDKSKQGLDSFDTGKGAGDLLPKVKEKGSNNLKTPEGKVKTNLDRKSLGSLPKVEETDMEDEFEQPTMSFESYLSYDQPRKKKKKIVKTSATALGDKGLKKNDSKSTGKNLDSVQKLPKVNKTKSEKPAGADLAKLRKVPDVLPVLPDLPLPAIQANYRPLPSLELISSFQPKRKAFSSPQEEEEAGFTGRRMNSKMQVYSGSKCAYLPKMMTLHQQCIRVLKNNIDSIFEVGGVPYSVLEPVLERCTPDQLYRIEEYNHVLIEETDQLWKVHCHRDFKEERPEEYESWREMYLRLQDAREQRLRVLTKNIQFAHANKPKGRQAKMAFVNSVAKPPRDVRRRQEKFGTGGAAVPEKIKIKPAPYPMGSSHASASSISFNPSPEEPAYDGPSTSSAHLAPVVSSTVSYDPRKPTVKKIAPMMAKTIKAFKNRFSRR
UniProt Q8N5X7: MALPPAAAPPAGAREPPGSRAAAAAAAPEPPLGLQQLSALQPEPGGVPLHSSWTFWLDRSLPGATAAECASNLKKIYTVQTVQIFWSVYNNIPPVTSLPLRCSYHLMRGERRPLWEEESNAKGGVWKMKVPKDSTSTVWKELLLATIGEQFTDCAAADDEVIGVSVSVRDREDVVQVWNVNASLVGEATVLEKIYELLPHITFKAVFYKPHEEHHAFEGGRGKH
UniProt Q9H4G0, whole entry, looked up: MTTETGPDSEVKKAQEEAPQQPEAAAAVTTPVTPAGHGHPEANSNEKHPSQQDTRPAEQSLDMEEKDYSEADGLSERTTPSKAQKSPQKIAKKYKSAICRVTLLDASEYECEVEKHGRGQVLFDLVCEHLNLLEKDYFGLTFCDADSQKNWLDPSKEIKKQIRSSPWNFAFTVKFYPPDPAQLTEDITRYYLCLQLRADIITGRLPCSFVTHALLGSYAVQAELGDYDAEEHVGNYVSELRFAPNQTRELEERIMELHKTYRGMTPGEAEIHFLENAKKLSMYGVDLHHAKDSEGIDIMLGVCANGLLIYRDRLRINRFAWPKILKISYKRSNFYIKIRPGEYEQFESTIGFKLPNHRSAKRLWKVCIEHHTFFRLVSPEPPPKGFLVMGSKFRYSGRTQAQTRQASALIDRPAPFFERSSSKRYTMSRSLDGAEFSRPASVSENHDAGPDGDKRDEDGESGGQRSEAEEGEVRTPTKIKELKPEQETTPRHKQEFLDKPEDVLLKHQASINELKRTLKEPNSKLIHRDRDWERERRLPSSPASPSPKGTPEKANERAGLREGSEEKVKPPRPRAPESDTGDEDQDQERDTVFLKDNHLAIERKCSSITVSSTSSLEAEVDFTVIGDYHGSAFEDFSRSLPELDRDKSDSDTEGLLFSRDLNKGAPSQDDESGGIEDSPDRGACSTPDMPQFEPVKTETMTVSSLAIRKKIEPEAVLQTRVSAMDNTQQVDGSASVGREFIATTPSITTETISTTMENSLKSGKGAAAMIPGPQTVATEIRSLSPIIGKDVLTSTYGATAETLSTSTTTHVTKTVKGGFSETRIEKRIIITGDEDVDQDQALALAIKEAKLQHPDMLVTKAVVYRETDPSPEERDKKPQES
UniProt Q96L91, whole entry, looked up: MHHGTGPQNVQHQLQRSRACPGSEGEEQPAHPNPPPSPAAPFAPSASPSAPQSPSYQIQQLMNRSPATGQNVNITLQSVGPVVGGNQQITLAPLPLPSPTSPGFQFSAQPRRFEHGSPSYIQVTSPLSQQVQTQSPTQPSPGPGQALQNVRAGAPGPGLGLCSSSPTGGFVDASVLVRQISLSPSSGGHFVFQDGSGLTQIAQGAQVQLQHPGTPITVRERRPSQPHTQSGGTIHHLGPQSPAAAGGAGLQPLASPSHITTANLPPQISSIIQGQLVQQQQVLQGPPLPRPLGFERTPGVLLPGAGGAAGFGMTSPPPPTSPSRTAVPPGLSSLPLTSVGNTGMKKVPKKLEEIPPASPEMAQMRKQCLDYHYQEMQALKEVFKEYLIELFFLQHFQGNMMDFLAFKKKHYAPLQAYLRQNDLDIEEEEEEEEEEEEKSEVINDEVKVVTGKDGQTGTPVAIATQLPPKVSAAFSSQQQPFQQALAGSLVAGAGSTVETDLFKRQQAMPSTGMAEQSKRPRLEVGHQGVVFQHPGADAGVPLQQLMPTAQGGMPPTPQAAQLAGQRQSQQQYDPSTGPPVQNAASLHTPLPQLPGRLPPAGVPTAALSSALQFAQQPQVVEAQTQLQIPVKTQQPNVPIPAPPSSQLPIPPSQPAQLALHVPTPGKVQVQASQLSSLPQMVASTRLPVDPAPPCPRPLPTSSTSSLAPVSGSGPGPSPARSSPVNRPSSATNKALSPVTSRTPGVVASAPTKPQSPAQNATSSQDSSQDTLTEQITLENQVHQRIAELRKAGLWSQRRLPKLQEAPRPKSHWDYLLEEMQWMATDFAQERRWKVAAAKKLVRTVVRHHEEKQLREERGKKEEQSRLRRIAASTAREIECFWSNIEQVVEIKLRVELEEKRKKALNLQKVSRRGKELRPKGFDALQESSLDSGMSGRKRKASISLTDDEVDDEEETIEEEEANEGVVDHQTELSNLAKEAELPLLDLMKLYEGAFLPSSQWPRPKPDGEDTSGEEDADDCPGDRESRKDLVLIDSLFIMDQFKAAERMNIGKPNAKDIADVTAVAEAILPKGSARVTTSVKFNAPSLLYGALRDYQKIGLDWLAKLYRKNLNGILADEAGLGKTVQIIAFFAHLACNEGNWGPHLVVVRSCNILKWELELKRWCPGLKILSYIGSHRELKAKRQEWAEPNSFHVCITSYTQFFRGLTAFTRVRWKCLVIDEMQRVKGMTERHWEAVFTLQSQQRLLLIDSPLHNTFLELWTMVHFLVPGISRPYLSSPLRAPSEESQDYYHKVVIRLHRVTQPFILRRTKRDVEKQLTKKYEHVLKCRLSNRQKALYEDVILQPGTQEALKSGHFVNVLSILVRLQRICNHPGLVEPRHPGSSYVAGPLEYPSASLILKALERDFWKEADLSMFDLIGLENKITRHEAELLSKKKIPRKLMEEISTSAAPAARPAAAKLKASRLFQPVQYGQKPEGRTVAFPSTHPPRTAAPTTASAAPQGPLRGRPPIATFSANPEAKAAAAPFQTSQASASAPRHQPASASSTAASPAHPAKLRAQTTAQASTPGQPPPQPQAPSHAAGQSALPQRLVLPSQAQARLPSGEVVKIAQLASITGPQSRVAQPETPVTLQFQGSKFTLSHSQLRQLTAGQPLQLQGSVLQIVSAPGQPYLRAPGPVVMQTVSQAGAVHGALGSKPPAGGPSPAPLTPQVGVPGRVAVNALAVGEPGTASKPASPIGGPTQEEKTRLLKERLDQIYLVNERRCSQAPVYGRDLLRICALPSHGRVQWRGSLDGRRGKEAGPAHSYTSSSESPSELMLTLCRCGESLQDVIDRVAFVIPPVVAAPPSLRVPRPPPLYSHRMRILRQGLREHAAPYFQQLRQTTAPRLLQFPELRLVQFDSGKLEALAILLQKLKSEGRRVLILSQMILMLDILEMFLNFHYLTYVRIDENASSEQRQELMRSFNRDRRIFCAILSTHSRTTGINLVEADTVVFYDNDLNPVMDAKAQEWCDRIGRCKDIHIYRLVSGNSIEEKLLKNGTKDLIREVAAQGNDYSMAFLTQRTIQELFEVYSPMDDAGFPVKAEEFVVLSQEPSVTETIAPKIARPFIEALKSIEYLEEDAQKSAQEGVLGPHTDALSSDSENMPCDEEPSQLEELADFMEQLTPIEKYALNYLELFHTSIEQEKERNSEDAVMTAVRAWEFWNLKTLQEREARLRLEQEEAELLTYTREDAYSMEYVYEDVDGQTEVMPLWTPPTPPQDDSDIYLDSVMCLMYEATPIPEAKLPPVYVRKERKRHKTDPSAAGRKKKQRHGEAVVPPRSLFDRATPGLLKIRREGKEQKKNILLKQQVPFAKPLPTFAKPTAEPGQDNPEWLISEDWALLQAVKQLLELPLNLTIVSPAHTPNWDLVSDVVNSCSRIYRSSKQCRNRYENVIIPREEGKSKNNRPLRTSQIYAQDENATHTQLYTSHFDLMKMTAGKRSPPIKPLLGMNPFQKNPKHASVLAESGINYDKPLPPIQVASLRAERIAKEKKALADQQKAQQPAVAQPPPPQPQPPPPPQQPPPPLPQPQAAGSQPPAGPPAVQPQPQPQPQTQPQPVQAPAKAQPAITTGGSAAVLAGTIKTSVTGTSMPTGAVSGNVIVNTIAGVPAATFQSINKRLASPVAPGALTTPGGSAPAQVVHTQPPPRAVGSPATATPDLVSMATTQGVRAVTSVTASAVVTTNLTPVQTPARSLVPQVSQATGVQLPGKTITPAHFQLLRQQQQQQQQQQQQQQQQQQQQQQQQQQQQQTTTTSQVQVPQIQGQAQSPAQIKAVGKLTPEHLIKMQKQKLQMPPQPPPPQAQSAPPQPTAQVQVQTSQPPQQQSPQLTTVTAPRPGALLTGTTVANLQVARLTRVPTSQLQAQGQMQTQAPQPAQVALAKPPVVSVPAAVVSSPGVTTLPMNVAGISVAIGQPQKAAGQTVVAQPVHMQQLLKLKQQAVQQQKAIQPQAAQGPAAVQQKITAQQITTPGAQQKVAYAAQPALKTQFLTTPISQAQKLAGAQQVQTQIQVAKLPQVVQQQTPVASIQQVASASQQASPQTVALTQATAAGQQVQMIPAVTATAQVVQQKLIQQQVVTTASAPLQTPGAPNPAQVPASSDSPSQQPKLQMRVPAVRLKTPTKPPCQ
UniProt Q8WVE0: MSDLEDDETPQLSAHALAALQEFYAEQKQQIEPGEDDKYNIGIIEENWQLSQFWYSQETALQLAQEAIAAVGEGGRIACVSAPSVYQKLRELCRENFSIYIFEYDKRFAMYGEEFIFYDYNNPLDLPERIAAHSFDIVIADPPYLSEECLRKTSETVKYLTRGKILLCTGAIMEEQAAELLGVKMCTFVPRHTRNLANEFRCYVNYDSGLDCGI

Tests used:
Assay in all cases: log2 fold change, soluble protein after heating vs DMSO (PISA); higher = thermal stabilisation; K562 cells, 10 uM, 30 min; active = over 0.2 and 3.5 SD of the protein, either way, in both replicates (recomputed)
[1] = compound: CC1=C(C=C(C=C1)NC(=O)C2=CC(=CC=C2)C(C)(C)C#N)NC3=CC4=C(C=C3)N=CN(C4=O)C
Procedure, shortened: (§1)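 Quantification of soluble protein used TMTpro 16plex LC-MS/MS, with channel sums equalised. Samples were the supernatant after 21,000xg for 90 min of pooled aliquots from K562 cells (2×10^6 cells/mL) treated with 10 μM compound for 30 min, heated for 3 min over 48°C-58°C, and extracted in PBS with 0.5% NP-40 at 4°C. Values, from duplicates, describe thermal stability against control samples on a log2 fold-change scale.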

[2] = compound: CC1=C(C=C(C=C1)NC(=O)C2=CC(=CC=C2)N(C)C)NC(=O)C3=CC=C(C=C3)O
Procedure, shortened: as §1

[3] = compound: CC1=NC(=CC=C1)C2=C(N=C(N2)C(C)(C)C)C3=CC4=NC=CN=C4C=C3
Procedure, shortened: as §1

Nexturastat A = compound: CCCCN(Cc1ccc(C(=O)NO)cc1)C(=O)Nc1ccccc1 [Nexturastat A]
Procedure, shortened: as §1

[4] = compound: CCCc1cc(C)[nH]c(=O)c1CNC(=O)c1cc(-c2ccnc(N3CCN(C)CC3)c2)cc2c1cnn2C(C)C
Procedure, shortened: as §1

givinostat = compound: CCN(CC)Cc1ccc2cc(COC(=O)Nc3ccc(C(=O)NO)cc3)ccc2c1 [givinostat]
Procedure, shortened: as §1

barasertib = compound: CCN(CCCOc1ccc2c(Nc3cc(CC(=O)Nc4cccc(F)c4)[nH]n3)ncnc2c1)CCOP(=O)(O)O [barasertib]
Procedure, shortened: as §1

[5] = compound: CC[C@@H]1C(=O)N(C)c2cnc(Nc3ccc(C(=O)NC4CCN(C)CC4)cc3OC)nc2N1C1CCCC1
Procedure, shortened: as §1

epoxomicin = compound: CC[C@H](C)[C@@H](C(=O)N[C@@H]([C@@H](C)O)C(=O)N[C@@H](CC(C)C)C(=O)[C@]1(CO1)C)NC(=O)[C@H]([C@@H](C)CC)N(C)C(=O)C [epoxomicin]
Procedure, shortened: as §1

[6] = compound: CCn1c(C(=O)N(C2CC2)C2CC2)cc2c3c(ncn3C)c(Nc3cc(C)n(C)n3)nc21
Procedure, shortened: as §1

rosiglitazone = compound: CN(CCOC1=CC=C(C=C1)C[C@H]2C(=O)NC(=O)S2)C3=CC=CC=N3 (racemic) [rosiglitazone]
Procedure, shortened: as §1

[7] = compound: CC1=CC=C(C=C1)SC2=C3C=C(SC3=CN=C2)C(=O)N
Procedure, shortened: as §1

vemurafenib = compound: CCCS(=O)(=O)Nc1ccc(F)c(C(=O)c2c[nH]c3ncc(-c4ccc(Cl)cc4)cc23)c1F [vemurafenib]
Procedure, shortened: as §1

[8] = compound: CCCS(=O)(=O)Nc1ccc(F)c(C(=O)c2c[nH]c3ncc(Cl)cc23)c1F
Procedure, shortened: as §1

volasertib = compound: CC[C@@H]1C(=O)N(C)c2cnc(Nc3ccc(C(=O)N[C@H]4CC[C@H](N5CCN(CC6CC6)CC5)CC4)cc3OC)nc2N1C(C)C [volasertib]
Procedure, shortened: as §1

[9] = compound: CC[C@H](C)N1C=C(C2=C(C=C(C=C21)C3=CN=C(C=C3)N4CCNCC4)C(=O)NCC5=C(C=C(NC5=O)C)C)C
Procedure, shortened: as §1

[10] = compound: CN(C)CC(=O)Nc1ccc2[nH]c(=O)c3ccccc3c2c1
Procedure, shortened: as §1

[11] = compound: CN1C2=C(C3=C1C(=O)N(N=C3)CC4=CC(=CC=C4)N)SC(=C2)S(=O)C
Procedure, shortened: as §1

[12] = compound: CCn1cc(-c2ccnc3[nH]c(-c4cccc(CN(C)C)c4)cc23)c(-c2ccc(NC(=O)N(C)C)cc2)n1
Procedure, shortened: as §1

[13] = compound: CN1CCC(CNc2ccc3ncc(-c4cccc(OC(F)(F)F)c4)n3n2)CC1
Procedure, shortened: as §1

Measured: log2 fold change

EIF1B (UniProt O60739)
inactive: [1] 0.075 | [2] -0.04 | [3] 0.048 | Nexturastat A 0.134 | [4] -0.008 | givinostat -0.139 | barasertib 0.032 | [5] 0.029 | epoxomicin -0.04 | [6] -0.048 | rosiglitazone -0.157

EIF3J isoform 2 (UniProt O75822)
inactive: [1] -0.1 | [7] 0.032 | [3] -0.02 | Nexturastat A 0.048 | vemurafenib -0.17 | [8] -0.062 | [4] -0.613 | givinostat -0.129 | barasertib -0.071 | volasertib 0.031 | [9] -0.079 | epoxomicin 0.025 | [10] 0.076 | [11] 0.133

EHBP1 (UniProt Q8NDI1)
inactive: [4] -0.028 | [5] -0.155 | [12] 0.011 | [13] 0.015

ENTR1 (UniProt Q96C92)
inactive: [7] -0.091 | vemurafenib 0.06 | [8] -0.105 | givinostat 0.062 | volasertib 0.167 | [10] -0.107 | [11] 0.183

EIF3I (UniProt Q5TFK1)
inactive: [2] -0.119 | [3] -0.055 | [11] 0.094

EEF2K (UniProt O00418)
inactive: [2] 0.006 | [7] 0.043 | Nexturastat A 0.201 | vemurafenib 0.089 | [8] 0.157 | [4] 0.15 | givinostat -0.041 | [5] -0.046 | volasertib -0.395 | epoxomicin 0.093 | [12] 0.028 | [10] 0.096 | [13] -0.188

ELOVL7 (UniProt A1L3X0)
inactive: Nexturastat A 0.016 | givinostat 0.034 | epoxomicin 0.007 | [11] 0.047

EIF2AK3 (UniProt Q9NZJ5)
inactive: [7] 0.036 | [3] -0.043 | Nexturastat A -0.595 | [8] -0.161 | [4] 0.244 | givinostat 0.027 | barasertib 0.151 | [5] 0.322 | volasertib -0.114 | [9] 0.357 | epoxomicin 0.033 | [12] 0.106 | [11] 0.14 | [13] -0.017

ELMO2 (UniProt Q96JJ3)
inactive: [2] 0.039 | [11] 0.088

EIF2B4 (UniProt Q9UI10)
inactive: [7] -0.278 | [3] -0.034 | Nexturastat A 0.125 | vemurafenib -0.02 | [8] -0.051 | [4] -0.051 | givinostat -0.004 | barasertib -0.015 | [5] 0.119 | volasertib -0.347 | epoxomicin 0.06 | [6] 0.02 | [12] 0.056 | [10] -0.002 | rosiglitazone -0.165 | [11] -0.284 | [13] 0.043

EPB41, A0A2R8Y783
inactive: [3] -0.113 | [9] -0.136 | [11] -0.004

ENAH (UniProt Q8N8S7)
inactive: vemurafenib -0.532 | [12] 0.02 | [10] -0.755 | [13] -0.136

EEF1D isoform 3 (UniProt P29692)
inactive: [4] -0.674 | givinostat -0.236

ELOA (UniProt Q14241)
inactive: Nexturastat A 0.212 | [4] 0.04 | [5] 0.036 | epoxomicin -0.158 | [12] 0.241 | [13] -0.012

EML5 isoform 5 (UniProt Q05BV3)
inactive: [2] -0.04 | [7] -0.014 | [3] -0.057 | vemurafenib -0.011 | [8] 0.003 | [4] -0.185 | givinostat -0.038 | barasertib 0.045 | volasertib -0.033 | [9] -0.179 | [6] 0.039 | [10] 0.108 | rosiglitazone 0.005 | [11] 0.017

EIF4E3 (UniProt Q8N5X7)
inactive: [2] 0.021 | [3] -0.026 | givinostat 0.026 | [5] -0.106 | [6] 0.048

EIF5A2 (UniProt Q9GZV4)
inactive: [2] -0.143 | [4] -0.108 | barasertib 0.176 | rosiglitazone -0.003 | [11] 0.125

Quoted at random: two entries already listed.
EIF2B4 (UniProt Q9UI10)
inactive: [7] -0.278 | [3] -0.034 | Nexturastat A 0.125 | vemurafenib -0.02 | [8] -0.051 | [4] -0.051 | givinostat -0.004 | barasertib -0.015 | [5] 0.119 | volasertib -0.347 | epoxomicin 0.06 | [6] 0.02 | [12] 0.056 | [10] -0.002 | rosiglitazone -0.165 | [11] -0.284 | [13] 0.043

ELMO2 (UniProt Q96JJ3)
inactive: [2] 0.039 | [11] 0.088

(continued)

EPB41L1 (UniProt Q9H4G0)
inactive: [2] -0.143 | [7] -0.028 | [3] -0.088 | Nexturastat A -0.053 | vemurafenib -0.093 | [8] -0.044 | [4] 0.035 | givinostat 0.028 | barasertib 0.042 | [5] -0.121 | volasertib -0.088 | [9] 0.027 | epoxomicin -0.006 | [6] -0.001 | [12] 0.06 | [10] -0.01 | rosiglitazone 0.048 | [11] 0.032 | [13] -0.146

EIF5A (UniProt I3L397)
inactive: [2] -0.118

EMC9 (UniProt Q9Y3B6)
inactive: [9] 0.046

EEF1AKMT2 (UniProt Q5JPI9)
inactive: [1] 0.057 | [4] -0.11 | givinostat 0.052 | barasertib -0.126 | [5] -0.101 | [6] -0.03 | rosiglitazone 0.02

EP400 (UniProt Q96L91)
inactive: [1] -0.205 | [4] -0.184 | [12] 0.061 | [13] 0.017

EP400P1 isoform 6 (UniProt Q6ZTU2)
inactive: [2] -0.044 | [11] 0.044

ELP5 isoform 2 (UniProt Q8TE02)
inactive: [7] -0.079 | [8] -0.149 | givinostat -0.035 | volasertib 0.198 | [6] -0.012

EIF3E (UniProt E5RIT4)
inactive: Nexturastat A 0.398 | epoxomicin 0.087

ENKD1 (UniProt Q9H0I2)
inactive: [7] -0.068 | vemurafenib -0.048 | [8] 0.078 | givinostat 0.116 | [5] 0.088 | volasertib 0.046 | [6] -0.061 | [12] 0.007 | [10] 0.069 | [13] -0.07

ELAVL4 (UniProt P26378)
inactive: [2] 0 | [3] 0.069 | barasertib -0.006 | [5] 0.118 | [9] -0.013 | [12] 0.121 | rosiglitazone -0.016 | [13] 0.041

EIF4G1 (UniProt Q04637)
inactive: vemurafenib -0.071 | [12] 0.062 | [10] 0 | [11] 0.224
active: [13] -0.552

ENTPD3 (UniProt O75355)
inactive: [7] 0.078 | [3] 0.824 | [8] -0.052 | volasertib 0.016

EFCAB2 (UniProt Q5VUJ9)
inactive: [2] -0.099 | givinostat 0.135 | [5] -0.074 | [6] -0.173 | [12] 0.011 | [13] 0.037

EIF4B (UniProt F8VP89)
inactive: [2] -0.086 | [7] -0.444 | [3] 0.084 | [8] -0.233 | [4] 0.013 | barasertib 0.012 | [5] -0.023 | volasertib 0.109 | [9] -0.026 | [12] 0.048 | rosiglitazone -0.115 | [13] -0.212

EEF1AKMT1 (UniProt Q8WVE0)
inactive: Nexturastat A -0.028 | epoxomicin -0.297

ELK1 (UniProt P19419)
inactive: [3] 0.012 | [12] -0.066 | [13] -0.053

EPB41 isoform 4 (UniProt P11171)
inactive: [2] -0.022 | [7] -0.074 | [8] 0.128 | [4] 0.001 | barasertib -0.055 | volasertib -0.16 | [12] -0.099 | rosiglitazone -0.13 | [13] -0.062

EIF4H isoform 2 (UniProt Q15056)
inactive: givinostat -0.196 | [6] 0.084 | [12] 0.257 | [13] -0.104

ENPP2 isoform 2 (UniProt Q13822)
inactive: Nexturastat A -0.1 | barasertib 0.036 | epoxomicin -0.347 | rosiglitazone -0.069

ENO3 (UniProt K7EKN2)
inactive: [2] 0.029 | [11] -0.341
